Values from PubChem BioAssay AID1224830 (NIAID, 2016)

Assay: 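Genes whose knock-down alters the TNF-alpha reporter response to LPS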 (primary screen)
Cell system: human THP-1 monocytic leukaemia cells, TNF dual-luciferase reporter clone, PMA-differentiated to macrophage-like cells
Knock-down reagent: siRNA pool against human genes, 50 nM
Duration: LPS for 4 h, given about 3 days after siRNA transfection
Challenge: bacterial LPS (TLR4 ligand), 10 ng/ml
Read-out: 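TNF firefly reporter luminescence divided by renilla, normalised to the plate median, then turned into a robust z-score for each replicate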
Reading the numbers: TNF reporter robust z-score: higher = stronger TNF reporter response to LPS
Hit rule: 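a well is active when its z-score exceeds 2.8 or falls below -1.5; control wells carry no call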
Here is one part, drawn at random, of about 18,000 deposited reagents. Of all reagents, about 2,900 (16%) are marked active. 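Calls are made per well; low scores hint the gene aids the LPS response, high scores that it dampens it.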 Repeated entries: four replicate wells of each siRNA pool.

target gene | PubChem SID | TNF reporter robust z-score | Outcome
APBA2 (amyloid beta precursor protein binding family A member 2) | SID315447337 | -1.28 | inactive
APBA2 (amyloid beta precursor protein binding family A member 2) | SID315447337 | -0.89 | inactive
APBA2 (amyloid beta precursor protein binding family A member 2) | SID315447337 | -0.84 | inactive
APBA2 (amyloid beta precursor protein binding family A member 2) | SID315447337 | -0.05 | inactive
MGAT5B | SID315462286 | 0.78 | inactive
MGAT5B | SID315462286 | 0.79 | inactive
MGAT5B | SID315462286 | 0.83 | inactive
MGAT5B | SID315462286 | 0.07 | inactive
KIF22 (kinesin family member 22) | SID315449673 | -0.43 | inactive
KIF22 (kinesin family member 22) | SID315449673 | 0.17 | inactive
KIF22 (kinesin family member 22) | SID315449673 | -0.2 | inactive
KIF22 (kinesin family member 22) | SID315449673 | 0.39 | inactive
DESI2 (desumoylating isopeptidase 2) | SID315456417 | 0.84 | inactive
DESI2 (desumoylating isopeptidase 2) | SID315456417 | 0.12 | inactive
DESI2 (desumoylating isopeptidase 2) | SID315456417 | 0.62 | inactive
DESI2 (desumoylating isopeptidase 2) | SID315456417 | 0.13 | inactive
CLMP (CXADR like cell adhesion molecule) | SID315459490 | -0.09 | inactive
CLMP (CXADR like cell adhesion molecule) | SID315459490 | -0.31 | inactive
CLMP (CXADR like cell adhesion molecule) | SID315459490 | 0.72 | inactive
CLMP (CXADR like cell adhesion molecule) | SID315459490 | 0.02 | inactive
CHIT1 (chitinase 1) | SID315447911 | -0.93 | inactive
CHIT1 (chitinase 1) | SID315447911 | 2.16 | inactive
CHIT1 (chitinase 1) | SID315447911 | 1.81 | inactive
CHIT1 (chitinase 1) | SID315447911 | 1.11 | inactive
FMNL3 (formin like 3) | SID315460877 | -1.4 | inactive
FMNL3 (formin like 3) | SID315460877 | -0.14 | inactive
FMNL3 (formin like 3) | SID315460877 | -0.49 | inactive
FMNL3 (formin like 3) | SID315460877 | -0.21 | inactive
PRSS53 (serine protease 53) | SID315464011 | -0.77 | inactive
PRSS53 (serine protease 53) | SID315464011 | 1.31 | inactive
PRSS53 (serine protease 53) | SID315464011 | 2.02 | inactive
PRSS53 (serine protease 53) | SID315464011 | -0.91 | inactive
LHX1 (LIM homeobox 1) | SID315449762 | 0.19 | inactive
LHX1 (LIM homeobox 1) | SID315449762 | -0.47 | inactive
LHX1 (LIM homeobox 1) | SID315449762 | -0.18 | inactive
LHX1 (LIM homeobox 1) | SID315449762 | -0.64 | inactive

Continued.
target gene | PubChem SID | TNF reporter robust z-score | Outcome
SYNPR (synaptoporin) | SID315461916 | -0.76 | inactive
SYNPR (synaptoporin) | SID315461916 | -0.49 | inactive
SYNPR (synaptoporin) | SID315461916 | 1.41 | inactive
SYNPR (synaptoporin) | SID315461916 | 0.17 | inactive
EN2 (engrailed homeobox 2) | SID315448509 | 0.61 | inactive
EN2 (engrailed homeobox 2) | SID315448509 | 1.72 | inactive
EN2 (engrailed homeobox 2) | SID315448509 | 0.1 | inactive
EN2 (engrailed homeobox 2) | SID315448509 | 2.85 | active
TOPORS | SID315453908 | 0.01 | inactive
TOPORS | SID315453908 | -0.37 | inactive
TOPORS | SID315453908 | -0.26 | inactive
TOPORS | SID315453908 | 0.66 | inactive
NFE2L3 (NFE2 like bZIP transcription factor 3) | SID315453414 | -0.69 | inactive
NFE2L3 (NFE2 like bZIP transcription factor 3) | SID315453414 | -1.16 | inactive
NFE2L3 (NFE2 like bZIP transcription factor 3) | SID315453414 | -1.08 | inactive
NFE2L3 (NFE2 like bZIP transcription factor 3) | SID315453414 | -0.59 | inactive
CLEC18C (C-type lectin domain family 18 member C) | SID315463716 | 1.63 | inactive
CLEC18C (C-type lectin domain family 18 member C) | SID315463716 | 1.26 | inactive
CLEC18C (C-type lectin domain family 18 member C) | SID315463716 | 0.07 | inactive
CLEC18C (C-type lectin domain family 18 member C) | SID315463716 | 1.72 | inactive
PRKRIP1 (PRKR interacting protein 1) | SID315459398 | -0.66 | inactive
PRKRIP1 (PRKR interacting protein 1) | SID315459398 | 0.53 | inactive
PRKRIP1 (PRKR interacting protein 1) | SID315459398 | -0.34 | inactive
PRKRIP1 (PRKR interacting protein 1) | SID315459398 | 0.69 | inactive
SLC38A11 | SID315462486 | 1.26 | inactive
SLC38A11 | SID315462486 | 0.65 | inactive
SLC38A11 | SID315462486 | 1.88 | inactive
GNPDA2 (glucosamine-6-phosphate deaminase 2) | SID315461929 | 0.78 | inactive
GNPDA2 (glucosamine-6-phosphate deaminase 2) | SID315461929 | 0.15 | inactive
GNPDA2 (glucosamine-6-phosphate deaminase 2) | SID315461929 | 0.36 | inactive
GNPDA2 (glucosamine-6-phosphate deaminase 2) | SID315461929 | 2.02 | inactive
CPB2 (carboxypeptidase B2) | SID315448064 | 3.19 | active
CPB2 (carboxypeptidase B2) | SID315448064 | 0.03 | inactive
CPB2 (carboxypeptidase B2) | SID315448064 | -0.07 | inactive
CPB2 (carboxypeptidase B2) | SID315448064 | 0.84 | inactive
ANP32A (acidic nuclear phosphoprotein 32 family member A) | SID315452407 | 0.78 | inactive
ANP32A (acidic nuclear phosphoprotein 32 family member A) | SID315452407 | 1.55 | inactive
ANP32A (acidic nuclear phosphoprotein 32 family member A) | SID315452407 | 0.06 | inactive
ANP32A (acidic nuclear phosphoprotein 32 family member A) | SID315452407 | -0.74 | inactive
